The full ranking holds about 33,000 sequences; the median of “E-score (-0.5 to 0.5)” is about -0.0014, and the highest 2% start at about 0.25. The list shows a part of the results.
target: T1, Cad1 (UniProt P24813); test: PBM E-score (8-mer binding enrichment) (E-score (-0.5 to 0.5)); higher = stronger / more preferred TF binding; conditions: protein concentration: 100 nM; construct: GST-full length
T1 sequence: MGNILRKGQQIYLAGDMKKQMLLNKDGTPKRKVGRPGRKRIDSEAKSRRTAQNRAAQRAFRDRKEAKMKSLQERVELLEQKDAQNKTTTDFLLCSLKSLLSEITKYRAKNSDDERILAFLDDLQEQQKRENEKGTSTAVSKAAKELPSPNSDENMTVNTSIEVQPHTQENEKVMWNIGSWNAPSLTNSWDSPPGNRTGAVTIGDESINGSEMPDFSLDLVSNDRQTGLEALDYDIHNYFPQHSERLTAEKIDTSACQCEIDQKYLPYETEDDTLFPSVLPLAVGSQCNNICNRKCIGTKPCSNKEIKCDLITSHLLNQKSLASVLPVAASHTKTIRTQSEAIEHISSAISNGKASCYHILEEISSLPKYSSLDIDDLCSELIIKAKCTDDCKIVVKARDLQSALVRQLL
Procedure, shortened: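 Bound GST-tagged yeast transcription factors, applied at about 100-200 nM to double-stranded universal all-10-mer Agilent arrays, were detected with fluorescent anti-GST. Scans were normalised with masliner. A modified Wilcoxon-Mann-Whitney statistic, the E-score, was assigned to each ungapped eight-base word pooled with its reverse complement by the Universal PBM Analysis Suite.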

Sequence	PBM E-score
TGTATTAA	-0.00939
AGCATTAA	0.103
CTGTGGTC	-0.0451
CTATCAGA	-0.0588
ACGCGCGC	0.216
AAACCCCA	-0.0881
TCGAACCA	0.00614
CGTCGTCA	0.0789
CATCTGAA	-0.0273
GAATCATC	-0.0502
AGTCAGGC	0.294
GCAAGAGA	-0.0302
GCTCGTAC	-0.0251
GGCGGTTA	-0.0366
ACCGATTC	-0.167
CCGGAACG	-0.00669
AAGGATCT	-0.233
AGCAGGAA	0.0471
ATAGACTG	0.125
CGAAACTC	-0.0109
ATCCGAAT	0.24
CTGTGATA	0.0563
CCAAGGTA	-0.0324
GGCAGGTA	-0.106
ATATTAGA	0.197

Sequence	PBM E-score
GTGTTAAA	0.123
CCATGCCG	-0.0044
AAAGACTC	-0.138
AGAAACGC	-0.157
ATGTCCGG	0.148
ACCGGCTA	0.0442
GGAAGCGA	-0.0787
GCTTGACC	-0.178
AAGGATAA	-0.0596
AAAGGAGA	-0.256
GTCTTCAC	-0.151
GGGGCCTA	-0.371
CTATCAAG	0.0773
GTAGTAAA	0.0742
ACAACTAC	-0.0111
ATCCGCAG	0.183
CGCTATAG	-0.102
GCACGTAA	-0.0724
GTCTTCCA	-0.149
ACATAATG	0.172
ACGATAAT	0.159
ATAATTAC	0.295
CTGCGAAC	-0.0614
AAGGACAG	0.0368
GTTAGGTA	0.0174

Sequence	PBM E-score
ATATCGTA	0.0481
GCGACGGA	0.0268
ACAGGAGG	-0.311
ATAGAGCC	-0.106
AGATATAC	-0.00683
AATGGAGG	-0.211
GTCTGAGA	-0.0574
GACTTCCA	-0.0194
CATCTCAA	-0.112
CTCGAAGA	-0.132
ATCTAGAC	0.0045
TGACCGCA	0.0752
CAGAATAC	0.0636
AAATCTCA	0.158
AATGTAAC	0.0359
CCCCGCAC	-0.0934
AGGGTCAC	-0.275
CCAATCCG	0.0527
GAGGGTTA	-0.116
TAAATGTA	0.176
AGCAAATC	0.11
GGAGAGGA	-0.292
AAAAAGTT	0.00711
GGACATCA	0.0708
AGATGTTA	-0.167

Sequence	PBM E-score
TGAATTCA	0.231
CCACGTCA	0.0919
GATCGTGA	-0.139
CAGATACG	-0.0246
AAACGCCT	-0.15
AGATATGA	0.222
CGCTCAGC	-0.0359
GAAATGTA	0.038
CGTCTGCA	0.0107
CGAGTGAA	-0.00851
GGCGAGAA	0.0201
CCTTGACC	-0.11
AGTCCGTG	-0.121
CTGAACTA	-0.0623
CGAGCGAA	0.0991
CGTCGTAG	-0.0885
TTGCCCAA	-0.0406
GTCGAGAC	0.0826
AATTGCAG	0.0363
ACGGCACG	-0.0131
TACTCACA	0.0875
CGTATGTA	-0.105
AACTCATG	0.158
GAGGGTCC	-0.337
GGCGGTCA	-0.318

Sequence	PBM E-score
TAGTTAAA	0.108
GCGCCGAA	0.11
CATGATCC	-0.0795
ACCCAGCC	-0.142
CAGAGCCC	-0.103
CCGTGGGA	-0.217
CCTACCTA	-0.0464
AAAGCCGA	-0.0889
ACGTCATC	0.0219
GCCGACCC	-0.238
ACTGTTGC	0.0414
AGCTAAGA	0.0205
GAGTCAAA	-0.0957
CCATGGGC	-0.104
CATTCTCG	-0.0865
GGTGTGAC	-0.263
CAACACTC	0.0612
ATTGATAC	0.118
CACATAAA	0.162
CGCCCATA	-0.0511
TAGTCAGA	0.148
GCCGTGTA	-0.0267
TAGCAAAA	0.143
GTGACCAC	-0.238
CTACCATA	-0.0478

Sequence	PBM E-score
CCTAGACC	-0.179
AACCAGGA	-0.0101
CTATAGAG	-0.134
CCTTGGTC	-0.145
CGCCACGC	-0.0119
AAAAGCTC	-0.0203
CGTGTAAA	-0.0103
CCCGGTAA	-0.056
ACTACTAA	0.158
AATCTTTA	-0.0229
TCCCTGAA	0.0754
CTAGTCTA	-0.173
AAATTCGT	0.169
AACTCTAT	-0.0631
ACCAGTTG	-0.0247
AATACGGT	0.0436
GAACTCTC	-0.0666
AGAAGGCG	-0.0454
CTGGATCC	-0.00135
GGGTGGGA	-0.0834
GATCCTTA	-0.0932
ATTACTTG	0.125
ATGCGCTG	0.00503
CACCAAAC	0.181
ACACGCAT	-0.0402

Looked up above:
GGGTGGGA – PBM E-score: -0.0834
ACACGCAT – PBM E-score: -0.0402
ATTACTTG – PBM E-score: 0.125

Reformatted: results already given.
GGCGAGAA
  PBM E-score: 0.0201
CCGTGGGA
  PBM E-score: -0.217

(list continues)

Sequence	PBM E-score
CCGCCGTA	-0.0406
CTGTGACC	-0.108
GCGCCTAC	0.0741
CCCGTGGA	-0.163
GAGGAACA	0.167
CCCCCCAA	-0.442
ATCGGAGA	-0.0793
GAACGGCC	-0.016
AACTAGCT	0.0207
ATGCGTTC	0.113
AATCTGTC	0.0801
GTGAACAA	-0.011
ACGATACA	-0.0646
ACTACCCC	-0.231
AAACAGGG	0.0116
AAGTCCTA	-0.103
ACCCCGAA	0.0309
AAAGACGC	-0.00428
ACGCTTGC	0.0347
AGTGCTAG	-0.11
TATCTCCA	0.0394
AGAGGACG	0.0374
CTACTTGC	0.076
CCTGCCAA	-0.0362
CTATACAC	-0.138

Sequence	PBM E-score
CAATATGC	0.0235
AGGTTTTA	-0.00118
ATCGCGTC	0.147
ACTTGACT	0.0737
CGCTCCTA	-0.0238
CGCCGCAA	0.179
CGATTGCC	0.0433
AGTGCACG	0.152
AAGTGTAT	0.00198
CTCGATAC	0.192
AGCAAAAG	-0.0758
CCTAGAAA	-0.048
TACTTAAA	-0.122
CGCAGGAA	-0.107
CCTATCAA	0.0736
CAGCGGCG	0.22
CAGGATGA	0.0644
AACGCTGA	0.0602
TGTAAAAA	0.0427
ACTCAGAG	0.0232
TAGACATA	0.0751
AGACTCAT	-0.0161
CTAGTATA	-0.138
AGGGTACT	-0.129
ATCCAGCG	0.0835

Sequence	PBM E-score
CGCACAAA	0.186
ACGAACCT	-0.00218
ATTCGGAA	0.129
GCACCGTA	0.0597
GGTGCGGA	0.0558
AATGATGT	0.0641
GAAGCCTC	-0.247
TGAGTCCA	0.00836
GCCTTACC	-0.201
AACTACAA	0.158
AGTTCCGG	0.00132
AACAGCTT	0.0251
GGAGTAAA	0.248
ATCGCGCC	0.143
AACCATAT	0.0429
CGGAGCGA	0.186
GGTTAGGA	-0.256
GCCAAGAA	-0.0623
TCTCAAAA	-0.0312
